No constants are given. Whether binding was seen depends on the method and setting. Some results given as binding are weak or reduced against the parent protein; the word gives no strength.
Tests used:
[1] = target: mouse TfR1, untagged, full length, transiently expressed on HEK293 (Exp293F) cells (mouse) (UniProt Q62351); assay: flow cytometry on cells
[2] = target: rat TfR1, untagged, full length, transiently expressed on HEK293 (Exp293F) cells (rat) (UniProt Q99376); assay: flow cytometry on cells

Amino acid sequences for entries named in this document (tags omitted).
UniProt Q99376: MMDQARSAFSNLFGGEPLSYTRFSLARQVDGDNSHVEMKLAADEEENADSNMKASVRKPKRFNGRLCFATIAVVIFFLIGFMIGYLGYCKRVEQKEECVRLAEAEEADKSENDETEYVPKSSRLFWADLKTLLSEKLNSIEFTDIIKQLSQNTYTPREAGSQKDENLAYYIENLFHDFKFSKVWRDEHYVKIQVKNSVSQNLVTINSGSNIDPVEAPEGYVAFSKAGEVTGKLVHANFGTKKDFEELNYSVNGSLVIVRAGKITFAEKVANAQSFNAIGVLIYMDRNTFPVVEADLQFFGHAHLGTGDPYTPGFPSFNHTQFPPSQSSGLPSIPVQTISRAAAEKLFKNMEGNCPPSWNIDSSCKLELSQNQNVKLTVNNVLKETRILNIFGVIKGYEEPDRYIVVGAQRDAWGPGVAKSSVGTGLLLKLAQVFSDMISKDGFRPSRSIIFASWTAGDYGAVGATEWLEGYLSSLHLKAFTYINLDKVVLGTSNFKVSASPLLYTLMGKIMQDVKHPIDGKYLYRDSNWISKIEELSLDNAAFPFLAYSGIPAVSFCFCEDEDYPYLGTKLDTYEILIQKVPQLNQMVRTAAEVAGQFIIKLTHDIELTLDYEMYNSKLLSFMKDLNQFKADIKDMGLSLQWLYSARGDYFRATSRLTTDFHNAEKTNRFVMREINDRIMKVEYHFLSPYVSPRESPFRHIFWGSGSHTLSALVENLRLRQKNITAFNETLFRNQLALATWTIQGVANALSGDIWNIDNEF

For “mouse Tf-Alexa Fluor 647 (from UniProt Q921I1 20-697) (ligand)”, the binding [1] was “binds” and the binding [2] was “binds”.

Source: paper doi:10.1101/816900
